# Test results taken from PubChem BioAssay AID493014 (National Center for Advancing Translational Sciences (NCATS), 2011).
# Values joined by “and” are separate entries in the source; they are usually repeats but may differ in a detail not shown here. Identical values can stand only once. This is one part of the list. Further columns of the screen follow, without active or inactive calls. Compounds called inactive in the main read-out are mostly missing here. The note in brackets gives the kind of curve behind each potency; many fits are weak.
# Experiment: qHTS Assay to Find Inhibitors of Chronic Active B-Cell Receptor Signaling
# Conditions: ABC-DLBCL IkBa-CBG/CBR reporter, luminescence ratio (green luciferase fused to IkBa over red control in TMD8 lymphoma cells), 4 h
# Summary of the method: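 TMD8 human ABC-DLBCL cells with doxycycline-inducible IκBα–green luciferase fusion and unfused red luciferase, in 0.5% FBS medium; compounds up to 46 uM, 4 h at 37C. Green/red luminescence ratio, filter-overlap corrected, fitted to concentration-response curves.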
# [1] = measured here: CBR red luminescence, cell number
# [2] = measured here: IkBa-CBG green luminescence
SMILES,AC50 [1],AC50 [2]
CCOc1ccc(-c2n[nH]c(=S)c3ccccc23)cc1,"35.5 µM [rising, single point]",–
Cn1ncc2c1ncn1nc(CCc3ccccc3)nc21,"0.355 µM [rising, partial curve, poor fit]",–
CCC1CCC2(CC1)SCC(=O)N2c1ccccc1 (configuration not stated),"6.31 µM [rising, single point]",–
NC(=O)CN1C(=O)C(O)(CC(=O)/C=C\c2ccc3c(c2)OCO3)c2ccccc21 (configuration not stated),"12.6 µM [falling, single point]",–
CCCn1nc2cc(C(=O)NCC34CC5CC(CC(C5)C3)C4)ccc2c1OCC,"12.6 µM [falling, single point]",–
CC(C)n1cnc2cc(NC(=O)c3ccco3)ccc21,"11.2 µM [falling, single point]",–
Cn1nc(-c2ccccc2)c(C(=O)Nc2ccc(Cl)cc2)c1Cl,"1.12 µM [rising, full curve, poor fit]",–
O=C(OCc1c(-c2ccccc2)ncc2ccccc12)c1ccc(F)cc1,"6.51 µM [falling, single point]",–
O=C(O)c1ccc(NC(=O)c2ccc3c(c2)C(=O)N(c2ccccc2)C3=O)cc1,"35.5 µM [falling, single point]",–
O=C(c1ccc(Br)o1)N1CCN(C/C=C/c2ccccc2)CC1,"3.55 µM [rising, full curve, poor fit]",–
Cc1nn(C)cc1/C=C/C(=O)c1cccs1,"16.4 µM [falling, partial curve]",–
COc1ccc(C(=O)CSc2ccccc2C(=O)O)cc1,"3.98 µM [rising, partial curve, poor fit]",–
CCCCCn1nc(C(=O)N2CCc3ccccc32)c2ccccc2c1=O,"29.1 µM [falling, single point]",–
O=C(Nc1nccs1)C1CC(=O)N(Cc2ccco2)C1 (configuration not stated),"11.2 µM [falling, single point]",–
C#CCOCCOCCOCCNc1nc(N2CCN(C(=O)CCCCCCCCCCNC(=O)[C@@H](CCSC)n3cc(CCO)nn3)CC2)nc(N2CCN(C(=O)CCCCCCCCCCNC(=O)[C@H]([C@@H](C)CC)n3cc(CCCCN=C(N)N)nn3)CC2)n1,"14.6 µM [rising, partial curve]",–
O=[N+]([O-])c1ccc(-c2nnc(-c3ccccc3)c(NCCCO)n2)cc1,"4.11 µM [falling, full curve]",–
CCOc1ccccc1NC(=O)Nc1ccc2c(c1)OCO2,"0.251 µM [falling, full curve, poor fit]",–
O=C(c1ccc(O)cc1)c1ccc(C(=O)c2ccc(O)cc2)cc1,"16.4 µM [falling, single point] and 25.1 µM [falling, single point]",–
O=C(COc1ccc(Cl)cc1Cl)NCCCN1CCOCC1,"4.47 µM [rising, partial curve, poor fit]",–
C/C(=N/OC(=O)C1CC1)c1cc(-c2ccc(Cl)cc2)no1,"3.16 µM [rising, full curve]",–

SMILES,AC50 [1],AC50 [2]
CCN(CC)S(=O)(=O)c1ccc(Cl)c(NC(=S)NC(=O)C2CCCC2)c1,"29.1 µM [falling, single point]",–
CCCn1c(NC(=O)c2ccccc2)nc2ccccc21,"0.00461 µM [rising, full curve, poor fit]",–
O=C(Nc1nnc(-c2ccncc2)o1)c1ccccc1,"0.631 µM [falling, full curve, poor fit]",–
CCOC(=O)C1(CCOC)CCN(Cc2ccc(C(=O)OC)cc2)CC1,"12.6 µM [falling, partial curve]",–
Cc1nn(-c2ccccc2)nc1CNC(=O)CC(C)(C)C,"0.398 µM [rising, full curve]",–
O=C(c1ccccc1)c1ccc(N2CCCC2)cc1,"2.82 µM [rising, full curve, poor fit]",–
O=C(COC(=O)/C=C/c1cccc([N+](=O)[O-])c1)NCCCN1CCCC1=O,"0.1 µM [falling, full curve, poor fit]","25.1 µM [rising, partial curve, poor fit]"
C[C@@H]1CC=C[C@H]2[C@H]1C(=O)N(Cc1ccccc1)[C@H]2c1ccc2ccccc2c1Br,"3.55 µM [falling, full curve, poor fit]",–
Nc1nc2c(s1)C(=O)CCC2,"6.31 µM [rising, single point]",–
O=C(Nc1ccccc1)NC1CC2CCC(C1)N2Cc1nnnn1Cc1ccc2c(c1)OCO2 (configuration not stated),"6.51 µM [rising, single point]",–
CSc1ccccc1OCc1cc(C(=O)NC(C)Cc2cccc(C)n2)no1 (configuration not stated),"17.8 µM [falling, single point]",–
CCn1ncc([N+](=O)[O-])c1C(=O)Nc1nc2cccc(C)c2s1,"12.6 µM [falling, single point]","11.2 µM [rising, partial curve, poor fit]"
CC(C)/C=C1\CCc2c([nH]c3ccccc23)C1=O,"35.5 µM [falling, single point]",–
Cc1ccccc1N=C(N)Nc1ccccc1C,"1.3 µM [falling, partial curve, poor fit]",–
CN(CCc1ccccn1)C(=O)c1cc(COc2ccc(F)cc2F)on1,"3.55 µM [rising, single point]",–
COc1ccc(N(C)C(=O)c2cn(CC(C)C)c(=O)c3cc(OC)c(OC)cc23)cc1,"2.82 µM [rising, partial curve]",–
Cc1c(OCC(=O)N2C[C@H]3C[C@@H](C2)c2cccc(=O)n2C3)ccc2c3c(c(=O)oc12)CCCC3,"1.58 µM [rising, partial curve, poor fit]",–
COc1ccc(Nc2nc(C(=O)N3CCc4ccccc4C3)cs2)cc1,"1.12 µM [falling, full curve, poor fit]",–
CCC(C)Nc1nc(N)c([N+](=O)[O-])c(Nc2cc(OC)ccc2OC)n1 (configuration not stated),"6.31 µM [rising, single point]",–
O=C(c1ccc2c(c1)N(Cc1ccccc1)C(=O)c1ccccc1S2)N1CCCC1,"14.1 µM [falling, single point]",–
